{"source": "patent US4833138A", "about": "“Phenothiazinealkaneamines for treatment of neurotoxic injury” (priority 1987, dated 1989)", "origin": "cited, not measured here", "tested_on": "NMA neurotoxicity", "conditions": "Olney et al, Neuroscience Letters 1986 for PCP and ketamine; competitive NMA antagonist statement without reference; cited from earlier work", "note": "At least one structure is not confirmed: it was looked up by name or label, or the drawing left a doubt."}
{"smiles": "N[C@H](CCCP(=O)(O)O)C(=O)O", "note": "[D-α-amino-5-phosphonopentanoate]", "values": [{"measurement": "blocking of NMA neurotoxicity", "result": "capable of effectively blocking the excitotoxic effects of NMA"}]}
